Assay results published in US11484533B2, “Methods and compositions for treating obesity” (UNIVERSITY OF SOUTH CAROLINA, priority 2019, dated 2022).

Tested on: F4/80+ cells isolated from adipose tissue
Assay: miR microarray in F4/80+ adipose tissue macrophages of treated DIO mice
Type: in vivo, C57BL/6J male mice
Conditions: F4/80+ ATMs
Experimental: Epididymal fat pads of mice were excised and placed in gentleMACS™ C Tubes (Miltenyi Biotec, San Diego, Calif.) containing digestion medium (HBSS, 2 mg/ml collagenase (Sigma-Aldrich, St. Louis, Mo.) and 2% BSA), followed by homogenization utilizing a gentleMACS™ Dissociator (Miltenyi Biotec). After incubation at 37° C. for 30 minutes with gentle shaking, the cell suspension was filtered through a 100-μm filter and then spun at 300 g for 5 minutes to separate floating adipocytes from the stromal vascular fraction (SVF) pellet. Isolation of F4/80+ ATMs from the SVF was performed using EasySep™ FITC Positive Selection Kit (STEMCELL Technologies, Vancouver, B.C.). FITC-anti-F4/80 antibodies (Clone: BM8, BioLegend®, San Diego, Calif.) were used to label the cells for positive selection. Isolated cells were lysed for RNA analysis in QIAzol (Qiagen, Valencia, Calif.) and stored at −80° C. until RNA purification.
The unique expression profile of miRs was assessed in F4/80+ cells isolated from adipose tissue by Affymetrix GeneChip® miR 3.0 array platform. The array contains 3100 murine-specific probes from Sanger miRBase. Total RNA was 3′-end labeled with FlashTag™ Biotin HSR hybridization technique (Genisphere, Hatfield, Pa.) and was carried out according to the manufacturer's instructions (Affymetrix®, Santa Clara, Calif.). Microarray CEL files were assessed for quality, normalized, and converted to CHP files by using the algorithm RMA-DABG in the software Affymetrix® Expression Console™ Version 1.4.1.46. CHP files were further analyzed using Affymetrix® Transcriptome Analysis Console™ Version 3.1.0.5 for annotation and differential expression. Expression of Log2 fold change (Log2 FC) was calculated and mean normalized expression was visualized in the form of a heat-map. miRs were considered differentially expressed if the Log2 FC was greater than +/−1.95.

Cc1c(C(=O)NN2CCCCC2)nn(-c2ccc(Cl)cc2Cl)c1-c1ccc(Cl)cc1 [SR141716A, 5-(4-chlorophenyl)-1-(2,4-dichlorophenyl)-4-methyl-N-piperidin-1-ylpyrazole-3-carboxamide]
number of miRs over-expressed (≥ 1.95 log2 fold-change) (HFD+SR vs HFD+Veh): 18 | number of miRs under-expressed (≥ 1.95 log2 fold-change) (HFD+SR vs HFD+Veh): 110 | number of miRs significantly down-regulated (HFD+SR vs HFD-PFSR): 109 | number of miRs significantly up-regulated (HFD+SR vs HFD-PFSR): 11
